Measured values as given in the supplement of paper PMC12067093, “Discovery and optimisation of a covalent ligand for TRIM25 and its application to targeted protein ubiquitination” (Chemical Science, 2025).
The other results are listed elsewhere or left out.

Chains of the proteins cited; added tags and fusions are not shown. Lines headed by an entry give the natural chain unless they say otherwise; changes in a name come on top.
UniProt Q8TAT6: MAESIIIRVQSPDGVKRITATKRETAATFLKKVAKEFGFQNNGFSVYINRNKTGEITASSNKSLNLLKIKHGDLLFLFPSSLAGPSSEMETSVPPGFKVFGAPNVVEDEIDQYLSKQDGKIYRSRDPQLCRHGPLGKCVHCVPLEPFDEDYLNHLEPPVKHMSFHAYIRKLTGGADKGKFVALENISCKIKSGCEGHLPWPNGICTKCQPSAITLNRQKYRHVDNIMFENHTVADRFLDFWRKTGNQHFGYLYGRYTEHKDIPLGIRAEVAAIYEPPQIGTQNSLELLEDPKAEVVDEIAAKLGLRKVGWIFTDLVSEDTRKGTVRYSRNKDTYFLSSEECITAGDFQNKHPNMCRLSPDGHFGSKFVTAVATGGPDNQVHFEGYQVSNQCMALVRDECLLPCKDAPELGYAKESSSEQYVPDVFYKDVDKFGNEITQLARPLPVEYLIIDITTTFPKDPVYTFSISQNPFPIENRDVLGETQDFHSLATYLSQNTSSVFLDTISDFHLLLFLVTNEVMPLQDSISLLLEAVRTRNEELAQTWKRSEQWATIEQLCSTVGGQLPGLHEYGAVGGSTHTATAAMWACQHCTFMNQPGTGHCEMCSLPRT
UniProt Q9BYT8, whole entry, looked up: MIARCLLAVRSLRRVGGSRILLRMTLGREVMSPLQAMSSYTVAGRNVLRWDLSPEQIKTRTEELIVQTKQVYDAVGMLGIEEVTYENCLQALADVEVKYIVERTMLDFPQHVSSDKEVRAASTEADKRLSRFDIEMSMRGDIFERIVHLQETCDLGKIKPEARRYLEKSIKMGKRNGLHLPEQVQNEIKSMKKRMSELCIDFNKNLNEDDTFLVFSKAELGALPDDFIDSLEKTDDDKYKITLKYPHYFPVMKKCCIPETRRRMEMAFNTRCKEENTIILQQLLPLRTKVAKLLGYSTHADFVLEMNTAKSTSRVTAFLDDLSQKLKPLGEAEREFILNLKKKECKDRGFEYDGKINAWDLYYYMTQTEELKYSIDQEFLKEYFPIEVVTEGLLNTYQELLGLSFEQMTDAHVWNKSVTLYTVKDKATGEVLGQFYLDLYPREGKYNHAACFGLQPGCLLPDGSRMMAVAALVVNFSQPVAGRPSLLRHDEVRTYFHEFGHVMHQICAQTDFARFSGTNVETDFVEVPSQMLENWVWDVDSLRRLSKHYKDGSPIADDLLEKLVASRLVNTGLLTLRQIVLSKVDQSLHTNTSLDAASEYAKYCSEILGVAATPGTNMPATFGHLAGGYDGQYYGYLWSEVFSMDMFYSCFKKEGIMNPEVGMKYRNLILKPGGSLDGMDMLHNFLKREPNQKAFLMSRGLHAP
UniProt Q9Y639: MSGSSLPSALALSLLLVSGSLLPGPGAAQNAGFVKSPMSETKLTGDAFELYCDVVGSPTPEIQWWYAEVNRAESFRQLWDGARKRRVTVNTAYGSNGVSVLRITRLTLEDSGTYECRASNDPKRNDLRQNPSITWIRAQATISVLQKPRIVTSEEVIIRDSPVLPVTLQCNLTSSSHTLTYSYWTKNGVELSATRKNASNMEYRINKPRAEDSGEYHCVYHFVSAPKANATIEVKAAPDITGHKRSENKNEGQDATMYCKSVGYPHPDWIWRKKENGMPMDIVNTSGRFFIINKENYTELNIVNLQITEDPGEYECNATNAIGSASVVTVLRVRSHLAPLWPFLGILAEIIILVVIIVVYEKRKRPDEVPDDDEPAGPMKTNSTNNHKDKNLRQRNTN
UniProt Q8WTW4: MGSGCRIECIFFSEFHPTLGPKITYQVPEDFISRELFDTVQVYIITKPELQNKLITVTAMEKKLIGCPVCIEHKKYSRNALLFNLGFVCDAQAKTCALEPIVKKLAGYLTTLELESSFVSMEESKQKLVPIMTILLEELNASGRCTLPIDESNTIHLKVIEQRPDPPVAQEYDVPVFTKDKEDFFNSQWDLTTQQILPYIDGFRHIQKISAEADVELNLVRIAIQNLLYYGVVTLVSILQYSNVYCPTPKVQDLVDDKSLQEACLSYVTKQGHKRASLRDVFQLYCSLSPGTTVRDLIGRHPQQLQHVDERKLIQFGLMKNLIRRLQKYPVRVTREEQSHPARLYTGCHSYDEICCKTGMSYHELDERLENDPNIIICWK
UniProt Q9Y5B8, whole entry, looked up: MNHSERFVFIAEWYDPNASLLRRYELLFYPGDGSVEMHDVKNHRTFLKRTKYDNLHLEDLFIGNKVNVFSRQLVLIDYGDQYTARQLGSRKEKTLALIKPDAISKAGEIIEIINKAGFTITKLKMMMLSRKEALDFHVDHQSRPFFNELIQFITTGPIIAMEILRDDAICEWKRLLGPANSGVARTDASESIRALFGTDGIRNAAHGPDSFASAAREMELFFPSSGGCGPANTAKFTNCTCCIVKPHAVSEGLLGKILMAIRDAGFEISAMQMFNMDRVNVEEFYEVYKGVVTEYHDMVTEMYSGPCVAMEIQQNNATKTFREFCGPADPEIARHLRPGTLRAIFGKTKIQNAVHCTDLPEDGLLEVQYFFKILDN
UniProt Q86UT6, whole entry, looked up: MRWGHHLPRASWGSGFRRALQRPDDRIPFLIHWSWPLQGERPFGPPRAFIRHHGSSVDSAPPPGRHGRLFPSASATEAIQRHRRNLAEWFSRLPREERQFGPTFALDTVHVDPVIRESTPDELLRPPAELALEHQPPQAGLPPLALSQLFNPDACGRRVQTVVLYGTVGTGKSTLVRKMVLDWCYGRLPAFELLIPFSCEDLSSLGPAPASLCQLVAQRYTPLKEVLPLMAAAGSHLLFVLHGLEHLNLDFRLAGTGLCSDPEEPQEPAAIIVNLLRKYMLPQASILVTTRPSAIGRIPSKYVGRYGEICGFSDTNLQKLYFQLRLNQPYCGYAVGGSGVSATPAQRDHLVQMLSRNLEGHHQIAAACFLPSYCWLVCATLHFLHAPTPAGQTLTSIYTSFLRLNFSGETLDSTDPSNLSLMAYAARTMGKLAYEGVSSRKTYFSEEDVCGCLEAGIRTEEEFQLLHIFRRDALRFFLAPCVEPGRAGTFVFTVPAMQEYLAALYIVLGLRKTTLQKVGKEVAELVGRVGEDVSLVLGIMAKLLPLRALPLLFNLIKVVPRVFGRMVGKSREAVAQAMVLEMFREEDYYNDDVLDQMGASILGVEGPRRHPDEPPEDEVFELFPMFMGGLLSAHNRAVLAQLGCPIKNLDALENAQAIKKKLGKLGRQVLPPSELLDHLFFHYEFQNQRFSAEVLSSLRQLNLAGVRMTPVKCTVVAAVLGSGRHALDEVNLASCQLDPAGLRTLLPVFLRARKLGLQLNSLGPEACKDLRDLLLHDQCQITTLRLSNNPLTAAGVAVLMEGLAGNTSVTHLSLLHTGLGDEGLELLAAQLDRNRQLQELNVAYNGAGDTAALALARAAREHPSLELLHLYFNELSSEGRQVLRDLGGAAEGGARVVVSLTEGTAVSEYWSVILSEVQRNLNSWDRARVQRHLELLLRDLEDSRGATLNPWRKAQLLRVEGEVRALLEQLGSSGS
UniProt Q9BSC4: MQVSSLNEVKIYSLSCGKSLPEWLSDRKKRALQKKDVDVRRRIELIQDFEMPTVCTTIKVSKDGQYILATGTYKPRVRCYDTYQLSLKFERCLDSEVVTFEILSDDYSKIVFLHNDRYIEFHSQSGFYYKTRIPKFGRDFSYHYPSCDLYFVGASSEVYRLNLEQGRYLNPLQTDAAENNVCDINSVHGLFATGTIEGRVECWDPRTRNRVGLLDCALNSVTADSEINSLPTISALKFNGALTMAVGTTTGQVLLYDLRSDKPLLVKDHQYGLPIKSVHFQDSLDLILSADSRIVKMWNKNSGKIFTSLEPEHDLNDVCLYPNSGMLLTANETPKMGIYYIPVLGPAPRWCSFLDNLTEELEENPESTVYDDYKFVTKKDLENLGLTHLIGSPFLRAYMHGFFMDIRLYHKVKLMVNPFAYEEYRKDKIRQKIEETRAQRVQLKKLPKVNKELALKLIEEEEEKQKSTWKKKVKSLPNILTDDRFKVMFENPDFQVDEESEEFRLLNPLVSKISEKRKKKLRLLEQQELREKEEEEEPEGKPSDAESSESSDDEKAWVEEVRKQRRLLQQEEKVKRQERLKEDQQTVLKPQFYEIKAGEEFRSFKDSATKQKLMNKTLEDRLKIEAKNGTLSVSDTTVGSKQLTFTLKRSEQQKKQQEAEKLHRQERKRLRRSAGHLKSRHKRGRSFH
UniProt Q15738: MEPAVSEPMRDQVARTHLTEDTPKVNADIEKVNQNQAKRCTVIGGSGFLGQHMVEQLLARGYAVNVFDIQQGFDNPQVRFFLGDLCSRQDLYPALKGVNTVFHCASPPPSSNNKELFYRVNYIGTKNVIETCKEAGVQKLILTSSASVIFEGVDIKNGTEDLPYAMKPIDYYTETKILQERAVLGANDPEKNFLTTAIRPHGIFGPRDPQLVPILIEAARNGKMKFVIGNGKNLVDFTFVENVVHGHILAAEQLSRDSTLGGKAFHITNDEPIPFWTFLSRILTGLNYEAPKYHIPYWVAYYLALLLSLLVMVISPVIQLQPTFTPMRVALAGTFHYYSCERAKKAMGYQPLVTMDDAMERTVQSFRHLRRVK
UniProt Q86UY8: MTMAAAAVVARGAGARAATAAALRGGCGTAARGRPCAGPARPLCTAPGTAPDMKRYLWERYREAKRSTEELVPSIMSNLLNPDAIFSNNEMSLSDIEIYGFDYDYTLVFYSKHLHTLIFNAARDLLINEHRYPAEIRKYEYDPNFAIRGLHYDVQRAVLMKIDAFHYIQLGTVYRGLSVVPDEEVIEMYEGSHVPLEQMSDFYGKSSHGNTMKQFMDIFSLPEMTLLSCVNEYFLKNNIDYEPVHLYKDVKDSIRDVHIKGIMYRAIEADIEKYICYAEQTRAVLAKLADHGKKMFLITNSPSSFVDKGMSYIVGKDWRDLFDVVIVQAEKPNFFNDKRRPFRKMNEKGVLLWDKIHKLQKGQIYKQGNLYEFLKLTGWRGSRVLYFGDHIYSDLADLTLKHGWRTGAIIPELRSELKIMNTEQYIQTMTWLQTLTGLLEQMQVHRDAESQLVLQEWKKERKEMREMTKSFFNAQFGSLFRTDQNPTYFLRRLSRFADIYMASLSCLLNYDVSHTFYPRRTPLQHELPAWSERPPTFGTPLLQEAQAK
UniProt Q16656: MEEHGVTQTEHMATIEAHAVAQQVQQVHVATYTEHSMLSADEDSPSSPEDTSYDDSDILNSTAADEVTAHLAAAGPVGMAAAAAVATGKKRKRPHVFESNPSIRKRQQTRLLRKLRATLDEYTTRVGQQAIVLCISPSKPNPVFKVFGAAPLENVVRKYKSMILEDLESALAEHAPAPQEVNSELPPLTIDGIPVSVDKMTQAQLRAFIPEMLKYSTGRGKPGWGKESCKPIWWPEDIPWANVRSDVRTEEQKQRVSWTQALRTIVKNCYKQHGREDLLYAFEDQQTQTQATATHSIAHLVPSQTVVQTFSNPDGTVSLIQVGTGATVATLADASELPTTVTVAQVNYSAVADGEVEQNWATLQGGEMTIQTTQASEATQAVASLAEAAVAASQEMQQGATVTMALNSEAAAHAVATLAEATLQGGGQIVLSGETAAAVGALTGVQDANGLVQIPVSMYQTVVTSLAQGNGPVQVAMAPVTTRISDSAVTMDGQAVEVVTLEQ
UniProt Q9BV86: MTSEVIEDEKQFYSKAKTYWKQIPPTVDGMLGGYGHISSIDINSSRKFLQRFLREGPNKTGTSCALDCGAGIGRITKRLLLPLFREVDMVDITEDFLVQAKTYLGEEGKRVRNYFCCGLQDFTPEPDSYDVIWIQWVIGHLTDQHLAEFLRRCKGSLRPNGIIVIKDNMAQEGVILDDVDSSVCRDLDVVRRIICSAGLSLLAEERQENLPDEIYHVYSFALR
UniProt Q9NPE3: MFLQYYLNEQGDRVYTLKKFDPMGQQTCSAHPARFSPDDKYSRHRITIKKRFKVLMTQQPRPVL
UniProt Q9Y2X3: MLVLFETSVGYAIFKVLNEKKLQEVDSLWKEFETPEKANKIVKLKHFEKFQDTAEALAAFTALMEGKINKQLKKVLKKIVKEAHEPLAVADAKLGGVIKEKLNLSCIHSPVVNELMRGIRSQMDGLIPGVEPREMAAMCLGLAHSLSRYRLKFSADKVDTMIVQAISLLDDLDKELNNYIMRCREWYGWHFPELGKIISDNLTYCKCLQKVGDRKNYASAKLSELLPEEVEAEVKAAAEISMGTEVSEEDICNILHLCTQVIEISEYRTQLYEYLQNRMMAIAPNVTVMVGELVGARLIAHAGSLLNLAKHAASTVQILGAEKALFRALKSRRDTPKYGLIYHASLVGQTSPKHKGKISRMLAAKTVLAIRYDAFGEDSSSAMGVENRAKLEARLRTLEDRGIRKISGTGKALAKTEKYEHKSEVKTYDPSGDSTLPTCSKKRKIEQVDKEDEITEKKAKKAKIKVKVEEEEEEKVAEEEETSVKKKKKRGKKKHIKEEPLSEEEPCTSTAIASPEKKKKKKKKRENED
UniProt P61916: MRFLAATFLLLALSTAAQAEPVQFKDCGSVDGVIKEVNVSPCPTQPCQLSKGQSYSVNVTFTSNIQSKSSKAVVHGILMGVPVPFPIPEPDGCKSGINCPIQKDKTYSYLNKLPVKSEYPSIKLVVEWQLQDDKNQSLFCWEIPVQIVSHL

Compound: Cc1cc(ccc1-c1ccccc1)C(=O)N1CCCN(CC1)C(=O)CCl [compound 10]
Assay: probe-labelled cysteine peptide fold change vs DMSO (competition) (log2 fold change); higher = less target engagement (more negative = stronger competition)
Details: THP-1, incubation time: 4 h
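Note: competitive profiling in live THP-1 cells: cysteine peptides tagged with an iodoacetamide desthiobiotin (IA-DTB) probe, intensity after compound treatment relative to DMSO-treated cells.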

Target: NTHL1_P78549_290_ELWHEINGLLVGFGQQTCLPVHPR (UniProt P78549)
- probe-labelled cysteine peptide fold change (10 µM): 0.0835
- probe-labelled cysteine peptide fold change (50 µM): 0.0158

Target: NPLOC4_Q8TAT6_341_DTYFLSSEECITAGDFQNK (UniProt Q8TAT6)
- probe-labelled cysteine peptide fold change (10 µM): -0.0801
- probe-labelled cysteine peptide fold change (50 µM): 0.217

Target: NOL6_Q9H6R4_777_LAELLTQQHGLQCR (UniProt Q9H6R4)
- probe-labelled cysteine peptide fold change (10 µM): 0.0225
- probe-labelled cysteine peptide fold change (50 µM): 0.0277

Target: NLN_Q9BYT8_507_TYFHEFGHVMHQICAQTDFAR (UniProt Q9BYT8)
- probe-labelled cysteine peptide fold change (10 µM): -0.0376
- probe-labelled cysteine peptide fold change (50 µM): 0.0395

Target: NSMAF_Q92636_803_EGTVNIWDLTTATLMHQIPCHSGIVCDTAFSPDSR (UniProt Q92636)
- probe-labelled cysteine peptide fold change (10 µM): 0.177
- probe-labelled cysteine peptide fold change (50 µM): -0.0111

Target: NPTN_Q9Y639_218_AEDSGEYHCVYHFVSAPK (UniProt Q9Y639)
- probe-labelled cysteine peptide fold change (10 µM): -0.0596
- probe-labelled cysteine peptide fold change (50 µM): -0.112

Target: NPRL2_Q8WTW4_9_IECIFFSEFHPTLGPK (UniProt Q8WTW4)
- probe-labelled cysteine peptide fold change (10 µM): -0.02
- probe-labelled cysteine peptide fold change (50 µM): -0.0352

Target: NME7_Q9Y5B8_242_FTNCTCCIVKPHAVSEGLLGK (UniProt Q9Y5B8)
- probe-labelled cysteine peptide fold change (10 µM): 0.234
- probe-labelled cysteine peptide fold change (50 µM): 0.19

Target: NSD1_Q96L73_1312_CEEESLLAR (UniProt Q96L73)
- probe-labelled cysteine peptide fold change (10 µM): -0.133
- probe-labelled cysteine peptide fold change (50 µM): -0.258

Target: NOP9_Q86U38_123_TGSEMLQELLGFSPLKPLCR (UniProt Q86U38)
- probe-labelled cysteine peptide fold change (10 µM): -0.129
- probe-labelled cysteine peptide fold change (50 µM): -0.618

Target: NLRX1_Q86UT6_767_KLGLQLNSLGPEACK (UniProt Q86UT6)
- probe-labelled cysteine peptide fold change (10 µM): 0.0892
- probe-labelled cysteine peptide fold change (50 µM): -0.182

Target: NR2C2_P49116_153_NLTYSCR (UniProt P49116)
- probe-labelled cysteine peptide fold change (10 µM): 0.115
- probe-labelled cysteine peptide fold change (50 µM): -0.0771

Target: NOTCH1_P46531_1225_GTQGVHCEINVDDCNPPVDPVSR (UniProt P46531)
- probe-labelled cysteine peptide fold change (10 µM): -0.184
- probe-labelled cysteine peptide fold change (50 µM): -0.294

Target: NRDE2_Q9H7Z3_608_QTEEDCEDPER (UniProt Q9H7Z3)
- probe-labelled cysteine peptide fold change (10 µM): -0.087
- probe-labelled cysteine peptide fold change (50 µM): 0.221

Target: NSMAF_Q92636_721_ICWHDNR (UniProt Q92636)
- probe-labelled cysteine peptide fold change (10 µM): -0.00398
- probe-labelled cysteine peptide fold change (50 µM): 0.00124

Target: NLE1_Q9NVX2_251_ILTGHTQSVTCLR (UniProt Q9NVX2)
- probe-labelled cysteine peptide fold change (10 µM): -0.0421
- probe-labelled cysteine peptide fold change (50 µM): 0.128

Target: NOL10_Q9BSC4_202_VECWDPR (UniProt Q9BSC4)
- probe-labelled cysteine peptide fold change (10 µM): -0.0808
- probe-labelled cysteine peptide fold change (50 µM): 0.14

Target: NSDHL_Q15738_340_VALAGTFHYYSCER (UniProt Q15738)
- probe-labelled cysteine peptide fold change (10 µM): -0.142
- probe-labelled cysteine peptide fold change (50 µM): 0.183

Target: NOP56_O00567_142_GLTDLSACK (UniProt O00567)
- probe-labelled cysteine peptide fold change (10 µM): -0.345
- probe-labelled cysteine peptide fold change (50 µM): 0.0443

Target: NT5DC3_Q86UY8_506_FADIYMASLSCLLNYDVSHTFYPR (UniProt Q86UY8)
- probe-labelled cysteine peptide fold change (10 µM): -0.131
- probe-labelled cysteine peptide fold change (50 µM): 0.603

Target: NPEPL1_Q8NDH3_357_LVLADGVSYACK (UniProt Q8NDH3)
- probe-labelled cysteine peptide fold change (10 µM): -0.0677
- probe-labelled cysteine peptide fold change (50 µM): -0.142

Target: NRDC_O43847_906_LNFKPLEQEMPVQFQVVELPSGHHLCK (UniProt O43847)
- probe-labelled cysteine peptide fold change (10 µM): 0.221
- probe-labelled cysteine peptide fold change (50 µM): 0.0671

Target: NSMAF_Q92636_809_EGTVNIWDLTTATLMHQIPCHSGIVCDTAFSPDSR (UniProt Q92636)
- probe-labelled cysteine peptide fold change (10 µM): -0.244
- probe-labelled cysteine peptide fold change (50 µM): -0.18

Target: NR2C2AP_Q86WQ0_76_GCLEGSQGTQALHK (UniProt Q86WQ0)
- probe-labelled cysteine peptide fold change (10 µM): -0.16
- probe-labelled cysteine peptide fold change (50 µM): -0.0145

Target: NOTCH1_P46531_2140_SPQLHGAPLGGTPTLSPPLCSPNGYLGSLKPGVQGK (UniProt P46531)
- probe-labelled cysteine peptide fold change (10 µM): -0.633
- probe-labelled cysteine peptide fold change (50 µM): -0.771

Target: NSD2_O96028_743_FYHEACVK (UniProt O96028)
- probe-labelled cysteine peptide fold change (10 µM): -0.0303
- probe-labelled cysteine peptide fold change (50 µM): -0.202

Target: NRF1_Q16656_229_ESCKPIWWPEDIPWANVR (UniProt Q16656)
- probe-labelled cysteine peptide fold change (10 µM): 0.0541
- probe-labelled cysteine peptide fold change (50 µM): -0.0816

Target: NLRP7_Q8WX94_540_ELEATFGCR (UniProt Q8WX94)
- probe-labelled cysteine peptide fold change (10 µM): -0.00791
- probe-labelled cysteine peptide fold change (50 µM): -0.135

Target: NSL1_Q96IY1_53_RAVTEMLQLCGR (UniProt Q96IY1)
- probe-labelled cysteine peptide fold change (10 µM): -0.161
- probe-labelled cysteine peptide fold change (50 µM): 0.195

Target: NOC4L_Q9BVI4_99_YHSCCNR (UniProt Q9BVI4)
- probe-labelled cysteine peptide fold change (10 µM): 0.197
- probe-labelled cysteine peptide fold change (50 µM): 0.546

Target: NSDHL_Q15738_132_NVIETCK (UniProt Q15738)
- probe-labelled cysteine peptide fold change (10 µM): 0.0113
- probe-labelled cysteine peptide fold change (50 µM): 0.209

Target: NSUN5_Q96P11_308_YHEVHYILLDPSCSGSGMPSR (UniProt Q96P11)
- probe-labelled cysteine peptide fold change (10 µM): -0.414
- probe-labelled cysteine peptide fold change (50 µM): -0.515

Target: NSF_P46459_334_LGANSGLHIIIFDEIDAICK (UniProt P46459)
- probe-labelled cysteine peptide fold change (10 µM): -0.0805
- probe-labelled cysteine peptide fold change (50 µM): 0.124

Target: NT5DC1_Q5TFE4_10+22_AQHFSLAACDVVGFDLDHTLCR (UniProt Q5TFE4)
- probe-labelled cysteine peptide fold change (10 µM): 0.336
- probe-labelled cysteine peptide fold change (50 µM): 0.962

Target: NTMT1_Q9BV86_184_DNMAQEGVILDDVDSSVCR (UniProt Q9BV86)
- probe-labelled cysteine peptide fold change (10 µM): -0.168
- probe-labelled cysteine peptide fold change (50 µM): -0.0708

Target: NOP10_Q9NPE3_28_KFDPMGQQTCSAHPAR (UniProt Q9NPE3)
- probe-labelled cysteine peptide fold change (10 µM): -0.126
- probe-labelled cysteine peptide fold change (50 µM): -0.11

Target: NOP58_Q9Y2X3_106_LNLSCIHSPVVNELMR (UniProt Q9Y2X3)
- probe-labelled cysteine peptide fold change (10 µM): -0.0637
- probe-labelled cysteine peptide fold change (50 µM): 0.0532

Target: NSDHL_Q15738_40_RCTVIGGSGFLGQHMVEQLLAR (UniProt Q15738)
- probe-labelled cysteine peptide fold change (10 µM): -0.109
- probe-labelled cysteine peptide fold change (50 µM): -0.144

Target: NOP58_Q9Y2X3_205_IISDNLTYCK (UniProt Q9Y2X3)
- probe-labelled cysteine peptide fold change (10 µM): -0.102
- probe-labelled cysteine peptide fold change (50 µM): -0.187

Target: NPM3_O75607_79_VEEEDDAEHVLALTMLCLTEGAKDECNVVEVVAR (UniProt O75607)
- probe-labelled cysteine peptide fold change (10 µM): -0.00235
- probe-labelled cysteine peptide fold change (50 µM): 0.0419

Target: NPC2_P61916_27_DCGSVDGVIK (UniProt P61916)
- probe-labelled cysteine peptide fold change (10 µM): -0.259
- probe-labelled cysteine peptide fold change (50 µM): 0.119

Target: NLRP2_Q9NX02_929_SSLLCLDLGLNHIGVK (UniProt Q9NX02)
- probe-labelled cysteine peptide fold change (10 µM): -0.271
- probe-labelled cysteine peptide fold change (50 µM): -0.24

Target: NRF1_Q16656_134_VGQQAIVLCISPSKPNPVFK (UniProt Q16656)
- probe-labelled cysteine peptide fold change (10 µM): 0.173
- probe-labelled cysteine peptide fold change (50 µM): -0.238
